{"source": "paper PMC9784857", "about": "“In Vitro Characterization of a Nuclear Receptor-like Domain of the Xylanase Regulator 1 from Trichoderma reesei” (Journal of Fungi, 2022)", "key": {"[1]": {"target": "T1, Xyr1 (Xylanase regulator 1) (Trichoderma reesei) (UniProt G0RLE8)", "T1 sequence (looked up, limits assumed)": "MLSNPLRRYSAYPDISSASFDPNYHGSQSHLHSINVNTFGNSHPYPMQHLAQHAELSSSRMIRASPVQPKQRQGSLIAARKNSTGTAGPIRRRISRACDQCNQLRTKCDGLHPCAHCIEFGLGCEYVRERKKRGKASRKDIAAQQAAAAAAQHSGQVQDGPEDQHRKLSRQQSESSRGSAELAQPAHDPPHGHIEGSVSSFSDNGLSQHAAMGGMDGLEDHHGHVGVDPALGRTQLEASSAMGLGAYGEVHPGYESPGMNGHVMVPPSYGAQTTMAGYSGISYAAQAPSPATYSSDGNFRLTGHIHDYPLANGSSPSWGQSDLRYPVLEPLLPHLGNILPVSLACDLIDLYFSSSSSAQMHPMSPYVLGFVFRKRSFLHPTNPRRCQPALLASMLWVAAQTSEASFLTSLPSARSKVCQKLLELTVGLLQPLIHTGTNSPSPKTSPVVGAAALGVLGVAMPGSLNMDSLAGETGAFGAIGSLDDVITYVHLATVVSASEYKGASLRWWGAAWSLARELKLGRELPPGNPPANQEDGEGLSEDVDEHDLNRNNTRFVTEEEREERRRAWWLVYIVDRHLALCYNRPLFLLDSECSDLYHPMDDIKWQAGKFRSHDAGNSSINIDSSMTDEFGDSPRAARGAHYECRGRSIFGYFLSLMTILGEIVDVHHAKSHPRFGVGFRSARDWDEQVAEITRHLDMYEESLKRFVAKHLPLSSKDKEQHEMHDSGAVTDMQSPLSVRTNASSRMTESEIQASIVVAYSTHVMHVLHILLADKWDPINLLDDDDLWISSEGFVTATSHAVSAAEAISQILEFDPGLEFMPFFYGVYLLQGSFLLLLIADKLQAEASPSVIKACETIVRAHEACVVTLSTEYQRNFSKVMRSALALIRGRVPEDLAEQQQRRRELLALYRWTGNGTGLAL", "assay": "EMSA", "settings": "sophorose, same shifts as without (data not shown); EMSA: 15 ng probe, 10 min, 0.2 µg/µL p(dIdC) plus unspecific duplex CKT067/CKT068; recombinant protein; protein details: C-terminal His6; label: 5' FAM on strand 1"}, "[2]": {"target": "T2, Xyr1A824V A804V (Trichoderma reesei) (UniProt G0RLE8)", "T2 sequence (looked up, limits assumed)": "T1 sequence (looked up, limits assumed) with A804V", "assay": "EMSA", "settings": "EMSA: 15 ng probe, 10 min, 0.2 µg/µL p(dIdC) plus unspecific duplex CKT067/CKT068, recombinant protein, protein details: C-terminal His6, label: 5' FAM on strand 1"}}, "note": "Positions count from the first letter of the chain named. The exact form of at least one protein or probe is not confirmed. For some assays here: The comparison behind a weaker result is the experiment's own reference, which may not be listed here. At least one verdict was read from the data and is not stated in words by the source. Tags and fusion partners may be left off the protein sequences shown."}
{"sequence": "TTGGCAGGCTAAATGCGACATCTTAGCCGGATGCA (double strand) [FAM-labelled xyn1 URR fragment, Pxyn1f_FAM/Pxyn1r]", "values": [{"measurement": "binding result", "setting": "[1]", "value": "binds"}, {"measurement": "binding result", "setting": "[2]; 170-1360 ng protein, weak double shift only at highest amount", "value": "binds more weakly"}, {"measurement": "binding result", "setting": "[2]; D-glucose-6-phosphate, complex formation not affected by sugar (data not shown)", "value": "binds more weakly"}, {"measurement": "binding result", "setting": "[2]; D-xylose, complex formation not affected by sugar (data not shown)", "value": "binds more weakly"}, {"measurement": "binding result", "setting": "[2]; sophorose, complex formation not affected by sugar (data not shown)", "value": "binds more weakly"}]}
